Test results from PubChem BioAssay AID493014 (National Center for Advancing Translational Sciences (NCATS), 2011).
Among all 340,000 compounds or so, about 170 (0.05%) were called active. Inconclusive means that the source gave no clear call. Such entries were picked first, then a sample of the others. The call rests on the fitted dose curve; in most records, active means well fitted inhibition curve with a large enough effect in the signal ratio, with a control signal flat (not every such curve was filed as active); inconclusive means small, poorly fitted or top-dose-only effect, or effect the other way, or a change in a side signal; inactive means flat fitted curve, though single readings scatter; the % refers to the signal ratio. A potency beside an inconclusive call is a rough fit, not a confirmed value.

Assay: qHTS Assay to Find Inhibitors of Chronic Active B-Cell Receptor Signaling;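 on activity change, negative = inhibition: plate controls were basal doxycycline-induced cells for no effect and cells given 10 µM MG132 for full effect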
Conditions: ABC-DLBCL IkBa-CBG/CBR reporter, luminescence ratio (green luciferase fused to IkBa over red control in TMD8 lymphoma cells), 4 h; activity change, negative = inhibition: at 46.1 µM (top of the series)
Procedure, shortened: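 Concentration-response series (up to 46 uM) were applied to TMD8 dual-reporter cells for 4 h at 37C with doxycycline. Green/red ratio, after filter-overlap correction, defined %Activity; red signal alone was normalised to basal cells and zero luminescence.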
Potency means the concentration at half of the fitted maximal effect.

SMILES | Potency | activity change, negative = inhibition
O=C(O)CCCCCNC(=O)Nc1ccc2c(c1)OCCO2 | inconclusive: 5.01 µM [falling, partial curve] | –
O=C(CCC1N=C2c3ccccc3N=C(SCc3ccc(Cl)cc3)N2C1=O)NCc1ccco1 (stereo unspecified) | – | inconclusive: 7.36%
CCOC(=O)N1CCC(NC(=O)CS(=O)(=O)Cc2nc(-c3cccc(Cl)c3)oc2C)CC1 | – | inconclusive: 7.12%
O=C(COC(=O)c1ccccc1C(=O)c1ccc(Cl)cc1)NC(c1ccccc1)c1ccccc1 | – | inactive: -0.348%
O=C(CC(NC(=O)OCc1ccccc1)C(=O)O)OCc1ccccc1 (stereo unspecified) | inconclusive: 0.794 µM [falling, full curve, poor fit] | –
CC1(C)Oc2ccc(C(=O)N3CCOCC3)cc2N(CC(=O)Nc2ccccc2)C1=O | – | inconclusive: -21.7%
O=C(Cn1nnc(-c2cccs2)n1)NCc1ccco1 | – | inconclusive: 0.484%
CC1CCCCN1C(=O)CSc1nc(C2CC2)nc2ccccc12 (stereo unspecified) | – | inconclusive: 0.403%
COCCN(C(=O)CCC(=O)Nc1cc(C)on1)C(C(=O)NC1CCCC1)c1ccc(C)cc1 (stereo unspecified) | – | inactive: 6.72%
CCOC(=O)c1[nH]c2ccccc2c1NC(=S)Nc1ccccc1 | – | inconclusive: -8.63%
CC(C)(C)c1ccc(C(=O)Nc2cccc([N+](=O)[O-])c2)cc1 | inconclusive: 29.1 µM [falling, single point] | –
O=C(Nc1ccccc1C(=O)Nc1ccc(Br)cn1)c1cccc([N+](=O)[O-])c1 | inconclusive: 25.1 µM [falling, single point] | –
COc1ccc(-c2oc(NC(=O)CCl)c(C#N)c2-c2ccc(OC)cc2)cc1 | – | inconclusive: -27.9%
NC(=O)c1ccccc1OCC(=O)Nc1ccc(Cl)c(Cl)c1 | inconclusive: 25.1 µM [falling, single point] | –
CC(O)c1nc2c(c(=O)n(C)c(=O)n2C)n1C (stereo unspecified) | – | inconclusive: 7.7%
Cc1cc(C(=O)Nc2cccc(O)c2)co1 | – | inconclusive: -0.849%
CN(c1cccc2cccnc12)S(=O)(=O)c1ccccc1 | – | inconclusive: 0.757%
CCCCC(NC(C)=O)c1nc2ccccc2n1CCC (stereo unspecified) | inconclusive: 1.84 µM [falling, partial curve, poor fit] | –
C(=N\n1cnc2ccccc21)/c1cccnc1 | – | inconclusive: -0.0165%
O=C(NNS(=O)(=O)c1ccc(F)cc1)c1ccc2c(c1)OCO2 | inconclusive: 20 µM [falling, partial curve, poor fit] | –
Cc1ccc(CN(C)C(=O)c2cccc(S(=O)(=O)N3CCN(Cc4ccccc4)CC3)c2)o1 | – | inactive: 2.67%
COC(=O)C(Cc1ccc(O)cc1)NC(=O)CCNC(=O)c1ccco1 (stereo unspecified) | – | inconclusive: 1.05%
CC(C)CN(C(=O)COC(=O)c1ccccc1NCc1ccco1)c1c(N)n(Cc2ccccc2)c(=O)[nH]c1=O | – | inactive: 1.92%
Cc1cc(C)c2oc(C(=O)N(Cc3cccs3)C3CCS(=O)(=O)C3)cc(=O)c2c1 (stereo unspecified) | – | inactive: -9.56%
Cc1ccc2nc(NC(=O)COC(=O)c3ccncc3)sc2c1 | – | inactive: -10.8%
Cc1sc2nc(-c3ccncc3)[nH]c(=O)c2c1-c1ccccc1 | – | inactive: -0.652%

SMILES | Potency | activity change, negative = inhibition
COc1ccc(Cl)c(NC(=O)Cn2nnc(-c3ccccc3N)n2)c1 | – | inconclusive: -5.81%
COc1ccc(C(=O)Nc2ccccc2C(=O)Nc2ccncc2)cc1 | inconclusive: 25.1 µM [falling, single point] | –
O=c1c(C=NCc2cccnc2)c(C(F)(F)F)[nH]n1-c1nc2ccccc2s1 | inconclusive: 7.08 µM [falling, partial curve, poor fit] | –
Cc1ccccc1CNC(=O)Cn1ccc2cc(S(=O)(=O)N3CCCCCC3)ccc21 | – | inconclusive: -7.94%
O=C(NCc1ccccc1Cl)C1CCN(S(=O)(=O)c2ccc(F)cc2)CC1 | inconclusive: 6.31 µM [falling, single point] | –
CN(Cc1ccccc1)C(=O)C1CCN(S(=O)(=O)c2cccc3nsnc23)CC1 | – | inactive: 6.21%
O=C(c1ccc2c(c1)OCO2)N(CC1CCCO1)C1(C(=O)NC2CCCCC2)CCCCC1 (stereo unspecified) | inconclusive: 1.84 µM [rising, full curve] | –
CCCCCCCOc1ccc(C2(C)NC(=O)NC2=O)cc1 (stereo unspecified) | – | inconclusive: 3.4%
CCOC(=O)C1=CN(Cc2cccc(F)c2)S(=O)(=O)NC1c1ccc2ccccc2c1 (stereo unspecified) | – | inactive: -2.04%
O=C(Cc1ccc(Cl)cc1)NCC(c1cccs1)S(=O)(=O)c1ccc(F)cc1 (stereo unspecified) | – | inconclusive: -0.529%
Cc1ccc(S(=O)(=O)N2CCC(=O)N(C(COCc3cccc(Cl)c3)Cc3ccccc3)CC2)cc1 (stereo unspecified) | – | inactive: 0.8%
COc1ccc(OC)c(C(=O)CN2CCN(S(=O)(=O)c3ccc(Br)cc3)CC2)c1 | inconclusive: 29.1 µM [falling, single point] | –
Cc1cc(C)nc(Nc2n[nH]c(-c3ccccc3Br)n2)n1 | – | inconclusive: -0.399%
O=C(Oc1coc(CSc2ncccn2)cc1=O)c1cccs1 | – | inactive: -14.7%
Fc1cc(Br)ccc1NC(=S)Nc1ccccc1 | – | inactive: 9.7%
COC(=O)c1ccc(N2CCCCC2)c(N)c1 | inconclusive: 17.8 µM [falling, partial curve] | –
Nc1ccccc1C(=O)N1O[C@@H]2C=C[C@H]1C2 | inconclusive: 29.1 µM [falling, partial curve, poor fit] | –
COc1ccccc1CCNC(=O)c1ccc(NC(=O)CC2SC(N3CCCCC3)=NC2=O)cc1 (stereo unspecified) | – | inactive: 0.609%
CO/N=C(/c1nonc1N)N1CCN(c2ccc([N+](=O)[O-])cc2)CC1 | – | inactive: 0.67%
CC(C)c1ccc(NC(=O)N2CCc3ccccc3C2)cc1 | – | inconclusive: 7.61%
Cc1cc(C)n(CCc2nc(-c3ccc(C)o3)cs2)n1 | inconclusive: 29.1 µM [rising, single point] | –
CC1CCN(c2ncnc3c2nnn3C)CC1 | – | inactive: -0.431%
Nc1nc2ncc(-c3ccsc3)c(N)n2n1 | – | inactive: -13.6%
O=c1[nH]c(CSc2nc3ccccc3o2)nc2c1cnn2-c1ccccc1 | – | inconclusive: 1.98%
COc1ccc(C2=CC(c3cccc(C)c3)n3nnnc3N2)cc1 (stereo unspecified) | inconclusive: 17.8 µM [falling, partial curve, poor fit] | –

Reprinted from the results shown, 3 compounds:
SMILES | Potency | activity change, negative = inhibition
Nc1ccccc1C(=O)N1O[C@@H]2C=C[C@H]1C2 | inconclusive: 29.1 µM [falling, partial curve, poor fit] | –
COc1ccccc1CCNC(=O)c1ccc(NC(=O)CC2SC(N3CCCCC3)=NC2=O)cc1 (stereo unspecified) | – | inactive: 0.609%
CO/N=C(/c1nonc1N)N1CCN(c2ccc([N+](=O)[O-])cc2)CC1 | – | inactive: 0.67%
